Laboratory results published in PubChem BioAssay AID2685 (National Center for Advancing Translational Sciences (NCATS), 2010).
The other results are listed elsewhere or left out. The main result of the screen is listed elsewhere. These columns were measured beside it and carry no call. The list favours compounds with an active or inconclusive main result. The note in brackets gives the kind of curve behind each potency; many fits are weak.

Assay: qHTS Assay for Lipid Storage Modulators in Drosophila S3 Cells;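 on cell number change: cells counted by Cell Tracker Red CMTPX staining in the red channel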
Details: BODIPY lipid droplet fluorescence, 18-24 h; for cell number change: measured here: cell count max response, cells fed with added oleic acid
Procedure, shortened: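 Laser-scanning cytometry quantifies lipid droplet accumulation (500–530 nm total intensity; droplet/cell object ratio) in oleic acid-fed (400 uM added) Drosophila S3 cells treated with a concentration series. 20 uM Triacsin C defined 100% inhibition.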

[1] = measured here: cell number channel AC50, cells fed with added oleic acid
[2] = measured here: lipid fluorescence (Fed channel) AC50, cells fed with added oleic acid

SMILES	cell number change [%]	AC50 [1]	AC50 [2]
O=C(Nc1ccc(F)cc1)c1ccc(NC(=O)C2CCCO2)cc1 (stereo not given)	24.8	–	–
Cc1ccc(NC(=O)N2C(=O)C3(OCCO3)c3ccccc32)cc1	39.3	32.6 µM [rising, single point]	6.51 µM [rising, single point]
COc1cc2c(cc1OC)C1O[C@](CCCCN3C(=O)c4ccccc4C3=O)(C2)OC2=C1C(=O)OC1(CCCCC1)C2	-12.6	–	–
Cc1ccc(N(C)S(=O)(=O)c2cccc(C(=O)Nc3ccc(N4CCOCC4)cc3)c2)cc1	-10	–	0.731 µM [falling, single point]
CC(=O)N1CCN(C(=S)Nc2cc(S(=O)(=O)N3CCOCC3)ccc2Cl)CC1	1.22	–	–
CC(=O)CC(=O)Nc1nc(C)cc(C)n1	88.8	–	–
COc1cc(OC)cc(C(=O)NNC(=O)C2CCCC2)c1	19.7	0.116 µM [rising, full curve, poor fit]	5.62 µM [falling, single point]
COc1ccc2c(c1)c(=O)c(Br)c(C)n2Cc1ccccc1	-22.7	0.146 µM [falling, full curve, poor fit]	6.51 µM [falling, full curve]
COc1cccc(-c2nnc(SCCC(=O)O)n2C)c1	0.397	–	8.2 µM [falling, partial curve, poor fit]
C=CCNC(=O)CN1CCC(NC(=O)c2ccco2)CC1	17.7	–	0.206 µM [rising, full curve, poor fit]
Cc1cccc(CN2CCN(CC(=O)NCCCN3CCCC3=O)C2=O)c1	-11	–	29.1 µM [falling, single point]
CCS(=O)(=O)c1c([N+](=O)[O-])ncn1C	-59.1	29.1 µM [falling, single point]	23.1 µM [falling, partial curve]
COC(=O)c1sccc1NC(=O)c1ccc(C(C)C)cc1	-19	–	2.59 µM [rising, single point]
COCc1cc(C)nc(NCCc2ccccc2)c1C#N	54.8	1.46 µM [rising, partial curve, poor fit]	16.4 µM [falling, partial curve]
CC(C)CCNC(=O)C(NS(=O)(=O)c1ccc2c(c1)c(=O)n(C)c(=O)n2C)c1ccccc1 (stereo not given)	54.3	29.1 µM [rising, single point]	2.06 µM [rising, partial curve]
O=C(NC1CCCCC1)c1cc(C2CC2)on1	31.4	2.91 µM [rising, partial curve]	10.3 µM [rising, partial curve, poor fit]
COc1ccccc1N1CCN(C(=O)Cc2cccs2)CC1	25.2	–	–
O=C(Cc1ccccc1)NC1CCN(Cc2ccccc2)CC1	-30.6	2.06 µM [rising, partial curve]	29.1 µM [falling, single point]
COc1ccc(COC(=O)C2=C(C)NC(=O)NC2c2ccccc2)cc1 (stereo not given)	-19.4	3.66 µM [falling, full curve, poor fit]	–
CC(C)Oc1ccc(S(=O)(=O)N2CCOCC2)cc1NC(=O)C1CCC1	41.3	0.651 µM [rising, full curve]	4.11 µM [rising, partial curve, poor fit]
CC(C)CN(C(=O)c1ccc([N+](=O)[O-])s1)c1c(N)n(Cc2ccccc2)c(=O)[nH]c1=O	-30.4	6.51 µM [falling, full curve, poor fit]	–
CCOC(=O)N1CCC(N(CCOC)C(=O)Nc2ccc(CC)cc2)CC1	-11.8	–	18.4 µM [rising, single point]
CC1(C(=O)O)CCC(C(=O)NC2CCCCCC2)C1(C)C (stereo not given)	2.54	–	0.058 µM [falling, full curve]
NC(=O)CN1C(=O)NC2(CCCc3sccc32)C1=O (stereo not given)	40.8	10.3 µM [rising, partial curve]	–
CC(C)[C@@H](C(=O)O)N(Cc1cccc(CN([C@H](C(=O)O)C(C)C)S(C)(=O)=O)c1)S(C)(=O)=O	14.2	–	29.1 µM [rising, single point]
N#CC(C(=O)NCCc1ccccc1)c1nc2ccccc2nc1N1CCOCC1 (stereo not given)	–	2.59 µM [rising, partial curve]	1.84 µM [rising, partial curve]
CCn1c(=O)cc(C(=O)OC)sc1=Nc1ccc(F)c(F)c1	17	–	1.64 µM [rising, single point]
Nc1c(C(=O)Nc2ccc(Cl)c(Cl)c2)sc2nc(-c3cccnc3)ccc12	7.99	–	0.103 µM [rising, full curve, poor fit]

Random excerpt: 2 records from the list.
SMILES	cell number change [%]	AC50 [1]	AC50 [2]
CC(C)CN(C(=O)c1ccc([N+](=O)[O-])s1)c1c(N)n(Cc2ccccc2)c(=O)[nH]c1=O	-30.4	6.51 µM [falling, full curve, poor fit]	–
O=C(NC1CCCCC1)c1cc(C2CC2)on1	31.4	2.91 µM [rising, partial curve]	10.3 µM [rising, partial curve, poor fit]
